Results: PubChem BioAssay AID504648 (National Center for Advancing Translational Sciences (NCATS), 2011)
“And” between values parts separate entries of the source, which are not always exact repeats. Identical values can stand only once. About 610 (0.16%) of roughly 390,000 compounds were called active. Inconclusive means that the source gave no clear call. Such entries were picked first, then a sample of the others. Calls come from the whole dose curve; as a rule, active = well fitted inhibition curve with a large enough effect; inconclusive = small, poorly fitted or top-dose-only effect, or effect the other way, or another doubt; inactive = no such curve, though single readings can be large or run the other way. A potency beside an inconclusive call is a rough fit, not a confirmed value.

Assay: Nrf2 qHTS screen for inhibitors: counterscreen for cytotoxicity
Conditions: A549 ARE-Fluc cells, CellTiter-Fluor viability, 18-24 h; activity change, negative = cytotoxicity: at 46 µM (top of the series)
Procedure, shortened: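 A549 ARE_Fluc cells in 5% FBS OPTI-MEM were exposed to compounds in concentration-response for 18-24 h at 37 deg C. Viability was read by CellTiter-Fluor fluorescence (Ex 405/Em 525) after 30 min, before the luciferase read.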
% is set by controls: 0 for no effect and ±100 for the full control effect; potency is the fitted concentration of half-maximal effect.

Row | SMILES | Potency | activity change, negative = cytotoxicity
1 | O=C(CSc1nnnn1-c1ccccc1)Nc1nsc(-c2ccccc2)n1 | inconclusive: 0.731 µM [activator, partial curve, poor fit] | 
2 | O=[N+]([O-])c1ccc(N2CCN(CC(O)COc3ccccc3)CC2)cc1 (configuration not stated) | inconclusive: 25.9 µM [falling, partial curve, poor fit] | 
3 | Cc1ccc(Nc2n[nH]c(=S)s2)cc1F |  | inactive: -1.38%
4 | Cc1ccc2c(CNC3CCCC3)c(C(=O)O)n(Cc3ccc(F)cc3)c2c1 | inconclusive: 11.6 µM [falling, partial curve, poor fit] | 
5 | CCCCOc1ccccc1C1CC(=O)NC2=C1C(=O)CCC2 (configuration not stated) | inconclusive: 6.51 µM [falling, partial curve] | 
6 | N#Cc1nc(NCC(F)F)c2ncn(-c3cc(F)cc(F)c3)c2n1 | inconclusive: 16.4 µM [falling, single point] | 
7 | Cc1cc(C)cc(NS(=O)(=O)c2ccc3oc(=O)ccc3c2)c1 | inconclusive: 6.51 µM [activator, partial curve, poor fit] | 
8 | CCN1CCN(c2cc(C)c3cc(NC(=O)c4cnccn4)ccc3n2)CC1 | inconclusive: 16.4 µM [falling, partial curve, poor fit] | 
9 | CCC(C)NCCOCCOc1cc(C)c(Cl)c(C)c1 (configuration not stated) | inconclusive: 16.4 µM [falling, partial curve, poor fit] | 
10 | COc1cccc(NC(=O)Nc2ccc3nc(N4CCN(C)CC4)cc(C)c3c2)c1 | inconclusive: 20.6 µM [falling, partial curve, poor fit] | 
11 | CCCCNC(=O)CCn1c(=O)c2ccccc2n(Cc2cccc(Cl)c2)c1=O |  | inactive: -6.58%
12 | COc1cc(C(C(=O)NC2CCCCC2)N(C(=O)Cc2c[nH]c3ccccc23)c2ccc(C)cc2)cc(OC)c1OC (configuration not stated) | inconclusive: 23.1 µM [falling, partial curve, poor fit] | 
13 | COc1ccc(-c2cc3ccc(O)cc3oc2=O)cc1OC | inconclusive: 18.4 µM [activator, partial curve] | 
15 | C=CCC[C@H](Cc1ccc(F)cc1)C(=O)OC[C@@H](NC(=O)[C@@H](CC=C)CC(=O)N(CCO)Cc1ccccc1)C(C)(C)C | active: 6.51 µM | 
16 | CC1CCN(c2ccc(-c3nc(-c4ccccc4)no3)cc2[N+](=O)[O-])CC1 | inconclusive: 16.4 µM [falling, single point] | 
17 | O=S(=O)(c1ccccc1)N1CCC(O)(CSc2ccc(F)cc2)CC1 | inconclusive: 8.2 µM [falling, partial curve, poor fit] | 
18 | COCCCN1C(=O)C(=O)/C(=C(/O)c2ccc(S(=O)(=O)N3CCCCC3)cc2)C1c1cccc(OC)c1 (configuration not stated) |  | inactive: -1.57%
19 | Cc1ccc([N+](=O)[O-])cc1NC(=O)CN(C)CCOc1ccccc1 |  | inactive: -4.48%
20 | Cc1ccc(C(=O)O)cc1N1C(=O)CCCC1=O | inconclusive: 0.13 µM [activator, full curve, poor fit] | 
21 | CCCCCCCn1c2c(c(=N)c3c1CCC3)CCCC2 | inconclusive: 7.31 µM [falling, partial curve] | 

Row | SMILES | Potency | activity change, negative = cytotoxicity
22 | O=C(c1cc([N+](=O)[O-])ccc1N1CCN(S(=O)(=O)c2ccc(Cl)c(Cl)c2)CC1)N1CCOCC1 | inconclusive: 29.1 µM [falling, single point] | 
23 | O=C(NCc1ccccn1)c1ccc(Cl)cc1Cl |  | inactive: 2.24%
24 | CC(C)C(NS(=O)(=O)c1cccc2nsnc12)C(=O)N1CCc2ccccc2C1 (configuration not stated) | inconclusive: 6.51 µM [activator, partial curve, poor fit] | 
25 | CC1CCC(C(C)C)C(OC(=O)Cn2c(-c3ccccc3)[n+](C)c3ccccc32)C1 (configuration not stated) | inconclusive: 23.1 µM [falling, single point] and inconclusive: 29.1 µM [falling, single point] | 
26 | Cc1cnc(NC(=O)CSc2nnc(-c3ccccc3)o2)s1 |  | inactive: -5.07%
27 | O=C(c1ccccc1)c1ccc(N2CCOCC2)c(NC(=O)c2ccco2)c1 |  | inactive: -3.35%
28 | O=C1N/C(=N\S(=O)(=O)c2ccccc2)S/C1=C\c1cc([N+](=O)[O-])ccc1O | inconclusive: 32.6 µM [falling, partial curve, poor fit] | 
29 | COc1cc(NC(=O)Cn2nc(C(F)(F)F)c(Br)c2C)cc([N+](=O)[O-])c1 | inconclusive: 29.1 µM [falling, single point] | 
30 | Cc1ccc(-c2noc(-c3ccccc3NC(=O)C3CC(=O)N(c4cccc(C)c4)C3)n2)cc1 (configuration not stated) |  | inactive: 16.2%
31 | CCc1nc(N(CC)CC)c2oc3ccccc3c2n1 |  | inactive: 2.52%
32 | CCc1sc(C(=O)NCc2ccco2)cc1Br | inconclusive: 25.9 µM [activator, partial curve] | 
33 | Oc1ccc(/C=C/c2nc(-c3ccccc3O)n(-c3ccccc3)n2)c(O)c1 | inconclusive: 18.4 µM [falling, single point] | 
34 | COCCn1c(-c2cccs2)csc1=Nc1cccnc1 |  | inactive: 2.58%
35 | CC1Cc2ccccc2N1S(=O)(=O)c1cccc(C(=O)NCc2ccccn2)c1 (configuration not stated) |  | inactive: 2.97%
36 | CCc1cccc(NC(=O)c2cc3c(=O)[nH]c4ccccc4c3n2C)c1 |  | inactive: -20.2%
37 | O=C1C(Cl)=C(NS(=O)(=O)c2ccc([N+](=O)[O-])cc2)C(=O)c2ccccc21 | inconclusive: 23.1 µM [falling, partial curve, poor fit] | 
38 | CC(=O)c1c(C)[nH]c(-c2ccccc2)nc1=S |  | inactive: 2.34%
39 | COc1ccc(C(=O)N/N=C/c2ccc(OC(=O)c3cccc4ccccc34)c([N+](=O)[O-])c2)cc1 | inconclusive: 32.6 µM [falling, partial curve, poor fit] | 
40 | CCc1cc2c(=O)[nH]c(-c3ccccn3)nc2s1 | inconclusive: 20.6 µM [falling, single point] | 
41 | CCCCCCOC1(c2ccccc2)OC(=O)c2ccccc21 (configuration not stated) | inconclusive: 20.6 µM [activator, partial curve, poor fit] | 
42 | CCc1ccc(NC(=O)c2ccc3c(=O)n4nc(Nc5ccccc5C)sc4nc3c2)cc1 | inconclusive: 16.4 µM [falling, single point] | 
